Data on 28 compounds can be found in PubChem BioAssay AID330 (DTP/NCI, 2004).

The assay deals with P388 leukemia ip, CD2F1 mice, survival T/C. Put plainly: NCI In Vivo Anticancer Drug Screen. Data for tumor model P388 Leukemia (intraperitoneal) in CD2F1 (CDF1) mice. As to conditions: T/C endpoint: median survival time, higher T/C = longer survival.
[1] abbreviates: dose: 240.0 mg/kg/injection, schedule: Q01DX005 (ip), vehicle: Klucel (hydroxypropylcellulose) (HPC).
The mark [2] stands for this setting: dose: 240.0 mg/kg/injection, schedule: Q01DX005 (ip), vehicle: saline.
Where [3] appears, read: dose: 240.0 mg/kg/injection, schedule: Q01DX005 (ip), vehicle: saline with Tween-80.
[4] abbreviates: dose: 100.0 mg/kg/injection, schedule: Q01DX009 (ip), vehicle: saline with Tween-80.
[5] abbreviates: dose: 200.0 mg/kg/injection, schedule: Q01DX009 (ip), vehicle: saline with Tween-80.
[6] abbreviates: dose: 200.0 mg/kg/injection, schedule: Q01DX005 (ip), vehicle: Klucel (hydroxypropylcellulose) (HPC).
[7] abbreviates: dose: 120.0 mg/kg/injection, schedule: Q01DX005 (ip), vehicle: saline with Tween-80.

The list is a part of this screen's results and no random one: it gathers tests that were run many times, whatever their T/C, doses with no T/C, and many T/C values between a quarter and a half above the control. Other doses and runs of a compound stand elsewhere. T/C gives the treated animals as a percentage of the vehicle group. Some entries give survivors of the animals treated and no T/C: the source holds a T/C of zero for them, seemingly a mark for toxic or unscored doses. Some doses without a T/C left all or most animals alive at the check, yet need not have been tolerated: the source hardly ever lists a survival T/C far under the control, and the zero likely stands for such cases as well. Counts of survivors are from the toxicity check (mostly the fifth day) where no day follows; animals may have died later. Schedule codes are those of the source, taken here to give the interval after Q, in days (D) or hours (H), and the number of doses after X. Brackets with × stand for listed records that agree. For survival time, this PubChem deposit counts one and a half times the control or more as active, and values a quarter to a half above the control carry no call in these data; other NCI protocols may use other cut-offs. Some T/C values are followed by the survivors on the day toxicity was checked, most often the fifth; where none is given, no animal had died by that day. Some doses were run more than once; the results are listed from low to high.

`CCOC(=O)Oc1cc2c(c(OC)c1OC)-c1ccc(OC)c(=O)cc1C(NC(C)=O)CC2` (stereo not given): the survivor count is 6 of 6 (dose: 25.0 mg/kg/injection, schedule: Q01DX005 (ip), vehicle: Klucel (hydroxypropylcellulose) (HPC)); 3 of 6 (dose: 50.0 mg/kg/injection, schedule: Q01DX005 (ip), vehicle: Klucel (hydroxypropylcellulose) (HPC)); 5 of 6 (dose: 100.0 mg/kg/injection, schedule: Q01DX005 (ip), vehicle: Klucel (hydroxypropylcellulose) (HPC)).

On to `CN(C)C1=NC(N(C)C)=C2C=C(C(C)(C)C)C=C12`, for which the survivor count under setting [1] was 1 of 6.

As to `COc1ccc(C2=C(C#N)C(=C(C#N)C#N)NC(N)=C2C#N)cc1`, the survivor count under setting [1] was 0 of 6.

As to `COC(=O)C1CC(O)CC(C(=O)OC)O1` (stereo not given), the survivor count under setting [2] was 0 of 6.

In the case of `Cc1nc(N=C(N)N)nc2ccc3ccccc3c12`, the survivor count by setting is: (dose: 12.5 mg/kg/injection, schedule: Q01DX009 (ip), vehicle: Klucel (hydroxypropylcellulose) (HPC)) 0 of 6; (dose: 25.0 mg/kg/injection, schedule: Q01DX009 (ip), vehicle: Klucel (hydroxypropylcellulose) (HPC)) 3 of 6; (dose: 50.0 mg/kg/injection, schedule: Q01DX009 (ip), vehicle: Klucel (hydroxypropylcellulose) (HPC)) 1 of 6; (dose: 100.0 mg/kg/injection, schedule: Q01DX009 (ip), vehicle: Klucel (hydroxypropylcellulose) (HPC)) 0 of 6.

For the compound `CNC(=O)NC(c1ccc2c(c1)OCO2)c1cc2c(cc1O)OCO2` (stereo not given), the survivor count under setting [1] is 6 of 6.

For `CC(=O)OC(C)C(C)[N+](C)(C)C` (stereo not given), the survivor count (dose: 200.0 mg/kg/injection, schedule: Q04DX002 (ip), vehicle: saline) is recorded as 4 of 6 and the survivor count (dose: 400.0 mg/kg/injection, schedule: Q04DX002 (ip), vehicle: saline) is given as 1 of 6.

On to `CCN(CC)C1CC(O[C@H]2C[C@](O)(C(C)=O)Cc3c(O)c4c(c(O)c32)C(=O)c2c(OC)cccc2C4=O)OC(C)C1O` (stereo not given in full), for which the T/C (dose: 0.5 mg/kg/injection, schedule: Q01DX009 (ip), vehicle: water) was 128 % of control; the T/C (dose: 1.0 mg/kg/injection, schedule: Q01DX009 (ip), vehicle: water, evaluated on day 30) is 133 % of control; the T/C (dose: 1.0 mg/kg/injection, schedule: Q01DX009 (ip), vehicle: water, evaluated on day 45) was 129 % of control; the T/C (dose: 2.0 mg/kg/injection, schedule: Q01DX009 (ip), vehicle: water, evaluated on day 30) was 145 % of control [5 of 6 alive]; the T/C (dose: 2.0 mg/kg/injection, schedule: Q01DX009 (ip), vehicle: water, evaluated on day 45) is 148 % of control; the T/C (dose: 4.32 mg/kg/injection, schedule: Q04DX003 (ip), vehicle: water) is 134 % of control. Further, the T/C by setting is: (dose: 7.2 mg/kg/injection, schedule: Q04DX003 (ip), vehicle: water) 147 % of control; (dose: 24.0 mg/kg/injection, schedule: Q04DX003 (ip), vehicle: water) 137 % of control. In addition, the survivor count by setting is: (dose: 8.0 mg/kg/injection, schedule: Q01DX009 (ip), vehicle: water) 6 of 6; (dose: 16.0 mg/kg/injection, schedule: Q01DX009 (ip), vehicle: water) 6 of 6 (2×).

As to `C=C1CCN(c2ccc(OCC)cc2)C1=O`, under “dose: 16.0 mg/kg/injection, schedule: Q01DX009 (ip), vehicle: saline + alcohol”, the T/C is 136 % of control.

In the case of `NC(Cc1ccccc1)C(=O)CCl` (stereo not given), the survivor count reads like this: (dose: 50.0 mg/kg/injection, schedule: Q01DX001 (ip), vehicle: saline) 1 of 6; (dose: 100.0 mg/kg/injection, schedule: Q01DX001 (ip), vehicle: suspension in saline) 0 of 6; (dose: 200.0 mg/kg/injection, schedule: Q01DX001 (ip), vehicle: suspension in saline) 0 of 6; (dose: 400.0 mg/kg/injection, schedule: Q01DX001 (ip), vehicle: suspension in saline) 0 of 6.

Turning to `CC(=O)c1ccc(O)c(O)c1O`, the T/C (dose: 400.0 mg/kg/injection, schedule: Q01DX009 (ip), vehicle: saline) was 133 [5 of 6 alive] and 137 % of control [5 of 6 alive].

In the case of `CC(=O)NCCNC(Cc1ccccc1)C(=O)O` (stereo not given), the survivor count (dose: 200.0 mg/kg/injection, schedule: Q01DX001 (ip), vehicle: Klucel (hydroxypropylcellulose) (HPC)) is on record as 1 of 6 and the survivor count (dose: 400.0 mg/kg/injection, schedule: Q01DX001 (ip), vehicle: Klucel (hydroxypropylcellulose) (HPC)) is 0 of 6.

As to `COc1ccc2nc3cc(Cl)ccc3c(NCCCNCCCCNCCCNc3c4ccc(Cl)cc4nc4ccc(OC)cc34)c2c1`, for the setting “dose: 5.0 mg/kg/injection, schedule: Q01DX009 (ip), vehicle: other”, the T/C is 141 % of control. The survivor count reads like this: (dose: 10.0 mg/kg/injection, schedule: Q01DX009 (ip), vehicle: other) 5 of 6; (dose: 20.0 mg/kg/injection, schedule: Q01DX009 (ip), vehicle: other) 2 of 6.

`COc1ccc(C2C3=C(CC(C)(C)CC3=O)Oc3cc4c(cc32)OCO4)cc1` (stereo not given): the survivor count under setting [3] is on record as 6 of 6.

For `CCOC(=O)SC(=S)OCC`, the survivor count is 5 of 6 (dose: 50.0 mg/kg/injection, schedule: Q01DX009 (ip), vehicle: saline with Tween-80); 0 of 6 under setting [4]; 0 of 6 under setting [5]; 0 of 6 (dose: 400.0 mg/kg/injection, schedule: Q01DX009 (ip), vehicle: saline with Tween-80).

Turning to `CCN(CCO)CCc1cccc2ccccc12`, the survivor count under setting [6] is recorded as 1 of 6.

In the case of `c1cc(OCCOc2cccc3ocnc23)c2ncoc2c1`, the survivor count under setting [7] was 6 of 6.

Turning to `CN(C)CCNc1cccc2c1C(=O)c1cccc(NCCN(C)C)c1C2=O`, the survivor count is recorded as 6 of 6 (dose: 30.0 mg/kg/injection, schedule: Q01DX009 (ip), vehicle: saline) and 1 of 6 (dose: 60.0 mg/kg/injection, schedule: Q01DX009 (ip), vehicle: saline).

Regarding `CC1(C)N=C(N/N=C/c2ccccc2)SP1(=O)NNc1ncccn1` (stereo not given), the survivor count under setting [1] is recorded as 0 of 6.

Consider `[B-]1n2ccc[n+]2[B-]n2ccc[n+]21`, for which the survivor count reads like this: (dose: 60.0 mg/kg/injection, schedule: Q01DX005 (ip), vehicle: saline with Tween-80) 6 of 6; under setting [7], 2 of 6; under setting [3], 0 of 6.

With `Cc1cc2c(cc1C)NC(C)CC(=O)N2` (stereo not given), the survivor count (dose: 400.0 mg/kg/injection, schedule: Q04DX003 (ip), vehicle: saline with Tween-80) is 3 of 6.

Consider `Nc1nc2ccc(CNc3ccc(C(=O)NC(CCC(=O)O)C(=O)O)cc3)nc2c(=O)[nH]1` (stereo not given), for which, under “dose: 200.0 mg/kg/injection, schedule: Q04DX003 (ip), vehicle: saline with Tween-80”, the survivor count was 2 of 6.

As to `C=C(C)C(=NC(C)(C)C)Nc1ccccc1Cl`, the T/C under setting [5] was 129 % of control.

For the compound `CC[PH+](CC)CC.CC[PH+](CC)CC.[Au]`, the T/C (dose: 1.25 mg/kg/injection, schedule: Q01DX009 (ip), vehicle: water) is 126 % of control. Further, the survivor count is 4 of 6 (dose: 2.5 mg/kg/injection, schedule: Q01DX009 (ip), vehicle: water); 3 of 6 (dose: 5.0 mg/kg/injection, schedule: Q01DX009 (ip), vehicle: water); 0 of 6 (dose: 10.0 mg/kg/injection, schedule: Q01DX009 (ip), vehicle: water); 0 of 6 (dose: 20.0 mg/kg/injection, schedule: Q01DX009 (ip), vehicle: water).

As to `CC(C)(C)N(OC(=O)c1ccc(Cl)cc1)c1ccccc1`, under setting [4], the survivor count was 6 of 6.

With `Cc1c(CN2CCOC(c3ccccc3)C2C)c(=O)n(-c2ccccc2)n1C` (stereo not given), the survivor count (dose: 200.0 mg/kg/injection, schedule: Q01DX009 (ip), vehicle: Klucel (hydroxypropylcellulose) (HPC)) was 0 of 6.

For the compound `CCN(CC)CCO/N=C1\CC(c2ccc(OC)c(OC)c2)Oc2ccccc21` (stereo not given), the survivor count is recorded as 0 of 6 (dose: 120.0 mg/kg/injection, schedule: Q01DX005 (ip), vehicle: saline) and 0 of 6 under setting [2].

Regarding `COc1ccc2c3c([nH]c2c1N)C(C)NCC3` (stereo not given), under setting [6], the survivor count is 0 of 6.
